Experimental data: PubChem BioAssay AID504834 (National Center for Advancing Translational Sciences (NCATS), 2011)
The campaign covered roughly 320,000 compounds. About 22,000 (6.9%) were called active. This list was built around the results that the source calls inconclusive (neither active nor inactive); the mix of calls is not that of the screen. Calls come from the whole dose curve; as a rule, active = well fitted inhibition curve with a large enough effect; inconclusive = small, poorly fitted or top-dose-only effect, or another doubt; inactive = no such curve, though single readings can be large or run the other way. Where the call is inconclusive, the potency comes from a doubtful curve fit.

assay: Primary qHTS for delayed death inhibitors of the malarial parasite plastid, 96 hour incubation; conditions: P. falciparum luciferase reporter growth; series mostly up to 28.7 µM
How it was run: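 96 h incubation, 37 C, 5% CO2, of luciferase-reporter P. falciparum-infected RBCs (2% hematocrit, 0.05% parasitemia final) with test compounds; endpoint luminescence.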
Potency is the fitted concentration of half-maximal effect.

SMILES	Potency
OCCC1CN(Cc2cccn2-c2cccnc2)CCN1Cc1ccccc1 (stereo not drawn)	inconclusive: 13.1 µM [inhibitor, single point]
Cc1nn(-c2ccc(F)cc2)c(C)c1NS(=O)(=O)c1ccc(Cl)cc1	inconclusive: 18.5 µM [inhibitor, single point]
CCOc1ccccc1NC(=O)CSc1nnc(CNC(=O)COc2ccc(Cl)cc2)o1	active: 10.4 µM
Cc1ccc(C2CC(=O)c3cnc(N4CCc5ccccc5C4)nc3C2)cc1 (stereo not drawn)	inconclusive: 0.0657 µM [inhibitor, full curve, poor fit]
C=CCn1c(SCC(=O)Nc2ccccc2OC)nc2c([nH]c3ccccc32)c1=O	active: 4.15 µM
CN(C)/C=C(\C#N)c1nc2ccccc2[nH]1	inconclusive: 6.57 µM [inhibitor, partial curve, poor fit]
Cc1ccc(S(=O)(=O)N2CCN(C(=S)NCCc3ccccc3)CC2)cc1	active: 7.38 µM
Cc1nc2ccc(NC(=S)N3CCCC3)cc2nc1C	inconclusive: 18.5 µM [inhibitor, single point]
CC1CN(S(=O)(=O)c2cccc(C(=O)OC(C)C(=O)NC3CCCCC3C)c2)CC(C)O1 (stereo not drawn)	inconclusive: 14.7 µM [inhibitor, single point]
COc1ccc2c(c1)c(C(=O)CN1CCc3ccccc3C1)c(C)n2C	inconclusive: 11.7 µM [inhibitor, single point]
CCCOc1ccc(C(=O)Nc2ccc(S(=O)(=O)N3C[C@@H]4C[C@@H](C3)c3cccc(=O)n3C4)cc2)cc1	active: 4.65 µM
CN1CCCC2(CCCN(Cc3nc(Cc4cccc(C(F)(F)F)c4)no3)C2)C1 (stereo not drawn)	inconclusive: 0.0037 µM [inhibitor, full curve, poor fit]
COC(=O)c1ccc(N2CCN(c3ccccc3)CC2)c(NC(=O)C2CC2)c1	inconclusive: 9.28 µM [inhibitor, single point]
COc1ccc(NC2CCCN(C(=O)CCCn3cncn3)C2)cc1OC (stereo not drawn)	active: 2.62 µM
C=CCn1c2ccccc2c2nnc(SCCN3CCOCC3)nc21	inconclusive: 0.928 µM [inhibitor, full curve, poor fit]
O=C(CSCc1ccc([N+](=O)[O-])cc1)NC1CC1	active: 13.1 µM
O=C(CCC1CCCN(Cc2ccc3c(c2)CCO3)C1)NCc1ccc(F)c(F)c1 (stereo not drawn)	inactive
COCCN(Cc1cc2cc3c(cc2nc1Cl)OCO3)C(=O)c1cccc(C)c1	inconclusive: 14.7 µM [inhibitor, single point]
O=c1sc2ccccc2c(N2CCOCC2)c1[N+](=O)[O-]	inactive
O=C(CSc1nc2ccc(Cl)cc2[nH]1)Nc1ccc2c(c1)CCC2	inconclusive: 13.1 µM [inhibitor, partial curve, poor fit]
CN(C)c1ccc(Sc2nnc(NC(=O)Nc3ccc(Cl)cc3Cl)s2)cc1	inconclusive: 18.5 µM [inhibitor, single point]
Cc1ccc(S(=O)(=O)N2CCN(C(=O)CC(C)n3cncn3)CC2)cc1C (stereo not drawn)	inactive

Arranged by number of heavy atoms (ascending): part of the list above
SMILES	Potency
Cc1nn(-c2ccc(F)cc2)c(C)c1NS(=O)(=O)c1ccc(Cl)cc1	inconclusive: 18.5 µM [inhibitor, single point]
Cc1ccc(S(=O)(=O)N2CCN(C(=S)NCCc3ccccc3)CC2)cc1	active: 7.38 µM
COCCN(Cc1cc2cc3c(cc2nc1Cl)OCO3)C(=O)c1cccc(C)c1	inconclusive: 14.7 µM [inhibitor, single point]

Later entries:

SMILES	Potency
ClCC1CN(Cc2ccccc2Cl)CCO1 (stereo not drawn)	inactive
Brc1ccc(C2=Nn3c(Cn4nnc5ccccc54)nnc3SC2)cc1	inconclusive: 18.5 µM [inhibitor, single point]
COc1ccc(C(=O)N2CCCC(c3nc(-c4ccc(OC)c(OC)c4)no3)C2)c(OC)c1 (stereo not drawn)	inactive
COCCCNC(=O)c1cc(OC)c(OC)c(OC)c1	inconclusive: 10.4 µM [inhibitor, single point]
CCOC(=O)c1c(C)sc2c1N(C(=O)CN1CCOCC1)c1cc(Cl)ccc1S2	inconclusive: 7.38 µM [inhibitor, partial curve, poor fit]
Cc1ccc(C)c(OCC(=O)N(C)CC(=O)Nc2ccc(Cl)c(C(F)(F)F)c2)c1	inconclusive: 5.86 µM [inhibitor, partial curve]
Nc1c(C(=O)NCc2ccco2)c2nc3ccccc3nc2n1CCc1ccc(F)cc1	inconclusive: 0.0104 µM [inhibitor, full curve, poor fit]
Cc1ncc(CN2CCC(CO)(CCOc3ccccc3)CC2)s1	inconclusive: 18.5 µM [inhibitor, partial curve, poor fit]
Cn1cc(CN2CCN(Cc3ccccc3)CC2)c(-c2cccc(Cl)c2)n1	inconclusive: 16.5 µM [inhibitor, single point]
COc1ccc(-c2noc(CN(C)C(=O)c3ccoc3C)n2)cc1	inconclusive: 18.5 µM [inhibitor, single point]
CC(C)CC(=O)Nc1sc2c(c1C(=O)O)CCCCC2	inconclusive: 10.4 µM [inhibitor, partial curve, poor fit]
Cc1cccc(NC(=O)c2ccccc2Br)n1	active: 11.7 µM
COc1ccc(F)cc1CN1CCN(CC(=O)Nc2ccccc2C(=O)NC2CC2)CC1	inconclusive: 9.28 µM [inhibitor, single point]
Nc1c2c(nc3sc4c(c13)CCCC4)CCCCC2	active: 0.828 µM
CCN1C(=O)[C@H]2[C@@H](c3ccc(-c4ccc(OC)cc4)cc3)N[C@@](C)(C(=O)OC)[C@H]2C1=O	inconclusive: 18.5 µM [inhibitor, single point]
CNC(=O)/C(C#N)=C/c1c(N(Cc2ccccc2)Cc2ccccc2)nc2c(C)cccn2c1=O	active: 2.94 µM
C=CCn1nnnc1SCC(=O)Nc1ccc(C(=O)OC)cc1	inconclusive: 16.5 µM [inhibitor, single point]
Cc1cccc(N=C2NC(=O)/C(=C/C=C/c3ccco3)S2)c1	inconclusive: 7.38 µM [inhibitor, partial curve]
CC(NC(=O)c1cc(S(=O)(=O)N(C)C)ccc1N1CCCC1)C1CC2CCC1C2 (stereo not drawn)	inconclusive: 1.47 µM [inhibitor, full curve]
O=C(c1cc(-c2ccco2)on1)N1CCCc2ccccc21	inactive
O=c1cc(-c2ccccc2)nc2nc(-c3ccccc3)[nH]n12	inconclusive: 2.08 µM [inhibitor, partial curve]
